The target of this assay is rat Neurotensin Receptor Type 1, C-terminal HRV3C-eGFP-His6 fusion (Rattus norvegicus) (UniProt P20789). Nature of the assay: SEC; fluorescence-detection SEC (FSEC), SRT-C SEC-300 HPLC column, 0.5 mL/min; sample from baculovirus-infected ExpiSf cells at 27 and 32 °C, solubilised in DDM, partially purified on Ni-NTA; the discussion says the same of Sf9 and High Five cells (DDM and DDM/CHS, no ligands added); both purified. In general terms: Size exclusion chromatography separates by hydrodynamic size, large species first.

By UniProt entry, the sequences of proteins in these tests, tags left out.
UniProt P20789: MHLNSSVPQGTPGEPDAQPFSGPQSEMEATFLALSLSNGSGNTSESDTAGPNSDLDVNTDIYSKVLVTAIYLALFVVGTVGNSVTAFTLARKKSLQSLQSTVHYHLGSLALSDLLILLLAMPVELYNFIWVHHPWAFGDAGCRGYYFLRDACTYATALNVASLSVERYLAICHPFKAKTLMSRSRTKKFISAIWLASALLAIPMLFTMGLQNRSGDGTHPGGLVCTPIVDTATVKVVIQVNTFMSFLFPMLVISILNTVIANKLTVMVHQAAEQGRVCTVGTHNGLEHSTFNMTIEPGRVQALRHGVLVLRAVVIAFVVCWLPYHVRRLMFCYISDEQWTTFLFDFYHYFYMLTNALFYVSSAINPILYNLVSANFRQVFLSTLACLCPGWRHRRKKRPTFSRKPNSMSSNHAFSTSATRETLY

These are yes or no findings as the source states them, for the method shown.

Regarding “rat Neurotensin Receptor Type 1, C-terminal HRV3C-eGFP-His6 fusion (from UniProt P20789 1-424)”, the binding result is “no binding”.

The values above are taken from paper PMC10216445.
